Test results as given in the supplement of paper PMC10849652.
The list shows a part of the results.

The chains behind the UniProt entries cited, without tags or fusion partners. Where a name states a change or a piece, a line headed by the entry shows the natural chain unless it says otherwise.
UniProt Q13103: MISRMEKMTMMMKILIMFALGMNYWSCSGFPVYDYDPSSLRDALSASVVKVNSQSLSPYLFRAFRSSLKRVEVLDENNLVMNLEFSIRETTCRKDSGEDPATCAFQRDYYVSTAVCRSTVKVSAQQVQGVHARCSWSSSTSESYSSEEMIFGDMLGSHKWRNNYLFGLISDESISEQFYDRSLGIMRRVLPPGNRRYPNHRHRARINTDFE
UniProt Q11206: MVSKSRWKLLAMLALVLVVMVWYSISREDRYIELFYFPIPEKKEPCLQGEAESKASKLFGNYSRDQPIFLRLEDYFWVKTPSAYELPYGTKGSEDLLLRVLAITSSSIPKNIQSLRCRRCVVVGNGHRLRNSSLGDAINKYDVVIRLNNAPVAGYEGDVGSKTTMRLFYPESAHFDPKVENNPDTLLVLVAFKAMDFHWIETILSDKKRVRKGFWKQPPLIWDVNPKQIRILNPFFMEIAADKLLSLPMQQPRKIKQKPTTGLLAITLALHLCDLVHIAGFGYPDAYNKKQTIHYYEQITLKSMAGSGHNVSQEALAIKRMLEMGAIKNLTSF
UniProt Q96EA4: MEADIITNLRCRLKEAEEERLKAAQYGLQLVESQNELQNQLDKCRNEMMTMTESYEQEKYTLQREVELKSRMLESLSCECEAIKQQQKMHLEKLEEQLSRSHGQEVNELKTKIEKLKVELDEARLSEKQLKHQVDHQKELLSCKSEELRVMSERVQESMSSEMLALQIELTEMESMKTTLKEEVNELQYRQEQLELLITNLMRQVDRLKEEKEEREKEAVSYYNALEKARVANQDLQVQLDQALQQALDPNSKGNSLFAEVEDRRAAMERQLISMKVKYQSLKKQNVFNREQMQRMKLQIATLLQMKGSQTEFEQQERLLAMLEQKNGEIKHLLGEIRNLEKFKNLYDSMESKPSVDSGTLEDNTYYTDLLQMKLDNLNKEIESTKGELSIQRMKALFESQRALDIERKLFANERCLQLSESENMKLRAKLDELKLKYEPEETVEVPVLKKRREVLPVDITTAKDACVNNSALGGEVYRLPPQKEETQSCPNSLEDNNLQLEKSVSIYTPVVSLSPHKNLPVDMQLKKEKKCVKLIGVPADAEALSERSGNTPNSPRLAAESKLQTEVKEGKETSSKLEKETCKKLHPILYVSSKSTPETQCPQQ
UniProt Q9BWW4: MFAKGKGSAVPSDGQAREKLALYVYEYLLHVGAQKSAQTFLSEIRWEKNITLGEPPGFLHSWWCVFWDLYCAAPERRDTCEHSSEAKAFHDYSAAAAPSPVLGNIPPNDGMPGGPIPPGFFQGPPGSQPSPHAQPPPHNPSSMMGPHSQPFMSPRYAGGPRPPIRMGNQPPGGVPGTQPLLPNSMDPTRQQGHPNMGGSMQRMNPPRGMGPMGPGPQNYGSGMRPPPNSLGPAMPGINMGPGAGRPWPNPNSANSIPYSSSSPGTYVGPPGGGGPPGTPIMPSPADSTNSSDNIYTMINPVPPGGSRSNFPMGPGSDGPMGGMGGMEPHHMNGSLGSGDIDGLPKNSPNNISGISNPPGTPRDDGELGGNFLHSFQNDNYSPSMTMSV
UniProt Q9Y6N5: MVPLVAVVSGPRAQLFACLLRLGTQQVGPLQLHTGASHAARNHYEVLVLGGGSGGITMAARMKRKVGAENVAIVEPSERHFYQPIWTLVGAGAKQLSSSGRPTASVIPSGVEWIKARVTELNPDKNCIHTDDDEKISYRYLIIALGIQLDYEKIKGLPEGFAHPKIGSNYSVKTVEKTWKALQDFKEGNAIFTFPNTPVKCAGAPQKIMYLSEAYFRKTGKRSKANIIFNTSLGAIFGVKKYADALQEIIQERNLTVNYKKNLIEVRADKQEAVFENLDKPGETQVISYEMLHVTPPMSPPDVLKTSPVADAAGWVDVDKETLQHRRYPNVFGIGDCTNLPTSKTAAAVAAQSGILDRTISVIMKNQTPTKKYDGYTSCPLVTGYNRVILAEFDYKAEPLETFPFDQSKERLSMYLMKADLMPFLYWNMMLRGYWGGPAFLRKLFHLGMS
UniProt Q9Y365: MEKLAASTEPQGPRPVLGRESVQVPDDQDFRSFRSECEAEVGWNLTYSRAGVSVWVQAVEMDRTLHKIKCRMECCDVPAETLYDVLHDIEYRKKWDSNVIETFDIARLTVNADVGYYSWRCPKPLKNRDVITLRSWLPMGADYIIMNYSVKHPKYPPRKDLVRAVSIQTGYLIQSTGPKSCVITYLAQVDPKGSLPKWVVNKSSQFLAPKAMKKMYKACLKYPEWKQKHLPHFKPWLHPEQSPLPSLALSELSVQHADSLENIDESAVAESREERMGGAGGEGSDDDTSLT
UniProt Q9NUQ6: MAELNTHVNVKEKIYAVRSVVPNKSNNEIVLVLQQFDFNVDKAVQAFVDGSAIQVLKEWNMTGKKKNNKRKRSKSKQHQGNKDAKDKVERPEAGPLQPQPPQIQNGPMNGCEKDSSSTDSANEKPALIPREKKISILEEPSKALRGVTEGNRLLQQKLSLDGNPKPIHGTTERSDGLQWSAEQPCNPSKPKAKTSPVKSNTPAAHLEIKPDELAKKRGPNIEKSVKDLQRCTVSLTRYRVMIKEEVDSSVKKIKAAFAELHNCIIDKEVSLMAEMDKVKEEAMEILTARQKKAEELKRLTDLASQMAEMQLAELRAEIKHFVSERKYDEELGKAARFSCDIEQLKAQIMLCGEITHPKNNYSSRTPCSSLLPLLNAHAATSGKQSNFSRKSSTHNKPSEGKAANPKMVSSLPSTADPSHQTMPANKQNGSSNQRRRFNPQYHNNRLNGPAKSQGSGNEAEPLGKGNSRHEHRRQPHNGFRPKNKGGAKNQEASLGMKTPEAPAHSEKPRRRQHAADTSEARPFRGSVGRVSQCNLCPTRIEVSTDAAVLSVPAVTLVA
UniProt P35325: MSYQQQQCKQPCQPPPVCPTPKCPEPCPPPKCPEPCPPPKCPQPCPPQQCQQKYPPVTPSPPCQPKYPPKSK
UniProt Q96T58, whole entry, looked up: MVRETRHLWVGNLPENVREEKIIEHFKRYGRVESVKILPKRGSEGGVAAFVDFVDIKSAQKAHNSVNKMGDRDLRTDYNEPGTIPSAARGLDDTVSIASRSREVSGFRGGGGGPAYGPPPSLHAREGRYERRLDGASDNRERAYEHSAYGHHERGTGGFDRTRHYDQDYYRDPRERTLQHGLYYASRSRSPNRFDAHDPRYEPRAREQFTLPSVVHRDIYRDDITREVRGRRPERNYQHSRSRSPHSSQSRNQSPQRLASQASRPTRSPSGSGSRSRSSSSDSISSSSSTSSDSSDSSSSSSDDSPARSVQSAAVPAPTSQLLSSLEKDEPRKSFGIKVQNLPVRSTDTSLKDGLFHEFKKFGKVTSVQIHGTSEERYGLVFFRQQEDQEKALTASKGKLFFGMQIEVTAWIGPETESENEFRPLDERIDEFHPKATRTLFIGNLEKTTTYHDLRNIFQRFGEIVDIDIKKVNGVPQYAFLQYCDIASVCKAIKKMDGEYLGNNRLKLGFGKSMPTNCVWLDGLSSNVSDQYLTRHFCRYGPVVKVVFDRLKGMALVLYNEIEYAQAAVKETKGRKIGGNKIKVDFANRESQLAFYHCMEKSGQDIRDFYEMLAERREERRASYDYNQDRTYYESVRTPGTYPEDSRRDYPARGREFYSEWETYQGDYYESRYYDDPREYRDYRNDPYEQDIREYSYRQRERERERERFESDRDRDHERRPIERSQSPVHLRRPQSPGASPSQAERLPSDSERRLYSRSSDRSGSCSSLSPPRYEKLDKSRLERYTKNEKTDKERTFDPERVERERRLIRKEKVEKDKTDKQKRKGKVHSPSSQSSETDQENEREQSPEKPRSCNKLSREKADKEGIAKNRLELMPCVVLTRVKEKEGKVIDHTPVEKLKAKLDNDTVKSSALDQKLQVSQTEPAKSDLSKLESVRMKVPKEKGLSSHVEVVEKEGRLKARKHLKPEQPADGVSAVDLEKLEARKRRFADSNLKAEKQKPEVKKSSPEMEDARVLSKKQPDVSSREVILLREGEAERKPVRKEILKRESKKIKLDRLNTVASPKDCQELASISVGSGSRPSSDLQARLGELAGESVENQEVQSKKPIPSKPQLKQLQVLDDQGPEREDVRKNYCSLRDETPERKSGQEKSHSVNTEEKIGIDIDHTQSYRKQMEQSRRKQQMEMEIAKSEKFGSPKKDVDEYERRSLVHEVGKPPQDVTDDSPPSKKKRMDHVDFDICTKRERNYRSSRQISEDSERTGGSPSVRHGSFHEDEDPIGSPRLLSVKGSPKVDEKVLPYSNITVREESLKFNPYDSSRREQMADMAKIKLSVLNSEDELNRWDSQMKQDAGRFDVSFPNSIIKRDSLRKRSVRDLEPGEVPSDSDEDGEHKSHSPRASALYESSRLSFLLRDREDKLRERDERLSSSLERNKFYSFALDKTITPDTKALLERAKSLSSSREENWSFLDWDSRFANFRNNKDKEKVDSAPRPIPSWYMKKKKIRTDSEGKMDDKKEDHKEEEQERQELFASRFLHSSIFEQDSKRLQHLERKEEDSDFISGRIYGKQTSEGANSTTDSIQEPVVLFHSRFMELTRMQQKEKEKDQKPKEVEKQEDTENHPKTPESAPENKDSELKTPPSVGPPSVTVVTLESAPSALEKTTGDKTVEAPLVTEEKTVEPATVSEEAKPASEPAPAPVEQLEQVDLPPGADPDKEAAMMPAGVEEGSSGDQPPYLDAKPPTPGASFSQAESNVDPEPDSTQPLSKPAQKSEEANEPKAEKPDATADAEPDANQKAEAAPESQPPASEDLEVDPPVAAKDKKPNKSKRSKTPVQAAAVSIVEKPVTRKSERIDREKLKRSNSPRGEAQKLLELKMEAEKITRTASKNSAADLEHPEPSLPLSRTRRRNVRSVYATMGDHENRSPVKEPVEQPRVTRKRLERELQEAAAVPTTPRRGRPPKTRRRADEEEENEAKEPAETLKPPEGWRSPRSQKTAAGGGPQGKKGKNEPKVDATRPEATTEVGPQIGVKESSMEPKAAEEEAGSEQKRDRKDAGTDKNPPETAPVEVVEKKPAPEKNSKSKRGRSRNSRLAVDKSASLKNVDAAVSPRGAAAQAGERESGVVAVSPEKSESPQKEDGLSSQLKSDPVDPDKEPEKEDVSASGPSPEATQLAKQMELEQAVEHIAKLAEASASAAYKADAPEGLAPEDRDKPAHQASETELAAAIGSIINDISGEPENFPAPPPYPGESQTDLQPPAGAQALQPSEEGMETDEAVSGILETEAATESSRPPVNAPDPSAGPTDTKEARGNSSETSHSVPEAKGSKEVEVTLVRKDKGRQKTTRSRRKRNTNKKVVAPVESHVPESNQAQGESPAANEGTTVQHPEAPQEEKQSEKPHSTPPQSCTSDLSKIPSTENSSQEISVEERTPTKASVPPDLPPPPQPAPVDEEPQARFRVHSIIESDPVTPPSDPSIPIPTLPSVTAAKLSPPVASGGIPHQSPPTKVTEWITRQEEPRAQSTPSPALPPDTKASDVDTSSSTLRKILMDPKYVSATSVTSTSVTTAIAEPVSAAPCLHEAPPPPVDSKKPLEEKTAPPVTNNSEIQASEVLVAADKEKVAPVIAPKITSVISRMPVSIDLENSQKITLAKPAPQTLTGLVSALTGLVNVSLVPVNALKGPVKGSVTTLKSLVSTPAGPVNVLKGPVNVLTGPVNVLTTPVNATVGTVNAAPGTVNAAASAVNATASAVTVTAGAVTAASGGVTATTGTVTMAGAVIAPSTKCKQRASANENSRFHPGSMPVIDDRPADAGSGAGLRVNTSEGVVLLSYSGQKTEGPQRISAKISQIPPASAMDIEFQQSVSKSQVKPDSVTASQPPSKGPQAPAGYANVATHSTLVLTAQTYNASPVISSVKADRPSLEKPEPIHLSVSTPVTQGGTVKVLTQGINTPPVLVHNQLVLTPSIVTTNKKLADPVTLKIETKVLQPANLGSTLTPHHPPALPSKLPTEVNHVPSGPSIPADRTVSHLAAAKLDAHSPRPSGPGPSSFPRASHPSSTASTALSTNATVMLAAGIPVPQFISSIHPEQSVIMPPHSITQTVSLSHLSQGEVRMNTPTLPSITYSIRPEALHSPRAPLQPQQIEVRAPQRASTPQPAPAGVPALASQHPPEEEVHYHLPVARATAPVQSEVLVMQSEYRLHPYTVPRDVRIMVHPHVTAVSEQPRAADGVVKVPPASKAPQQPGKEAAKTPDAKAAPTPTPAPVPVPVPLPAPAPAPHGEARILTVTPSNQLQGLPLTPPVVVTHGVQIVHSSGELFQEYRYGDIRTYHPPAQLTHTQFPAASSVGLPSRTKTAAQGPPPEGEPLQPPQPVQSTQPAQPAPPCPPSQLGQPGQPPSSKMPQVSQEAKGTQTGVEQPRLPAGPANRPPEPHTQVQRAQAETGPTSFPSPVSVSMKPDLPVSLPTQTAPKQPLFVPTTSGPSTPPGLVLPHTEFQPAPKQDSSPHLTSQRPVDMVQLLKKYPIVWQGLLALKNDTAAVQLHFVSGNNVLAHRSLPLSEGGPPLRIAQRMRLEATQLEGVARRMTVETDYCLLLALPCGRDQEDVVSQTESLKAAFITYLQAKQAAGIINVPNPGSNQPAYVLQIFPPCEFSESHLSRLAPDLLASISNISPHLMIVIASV

compound: CS(=O)(=O)c1ccc(-c2cnc(N)c(C(=O)Nc3ccccc3)n2)cc1; assay: log2 fold change, soluble protein after heating vs DMSO (PISA); higher = thermal stabilisation; K562 cells, 10 uM, 30 min; active = over 0.2 and 3.5 SD of the protein, either way, in both replicates (recomputed)
Method in brief: (§1)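 Aliquots of K562 cells (2×10^6 cells/mL) treated with 10 μM compound for 30 min were heated for 3 min over 48°C-58°C. After pooling and extraction in PBS with 0.5% NP-40 at 4°C, soluble protein from a 21,000xg, 90 min spin was quantified by TMTpro 16plex LC-MS/MS with channel sums equalised. Thermal stability is expressed against control samples, from duplicates, as a log2 fold change.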

| Target | log2 fold change |
| --- | --- |
| SPP2 (UniProt Q13103) | inactive: -0.083 |
| ST3GAL4 isoform 4 (UniProt Q11206) | inactive: -0.037 |
| SSBP4 (UniProt Q9BWG4) | inactive: -0.054 |
| SREK1IP1 (UniProt Q8N9Q2) | inactive: -0.008 |
| SPDL1 (UniProt Q96EA4) | inactive: -0.113 |
| SRCAP (UniProt Q6ZRS2) | inactive: -0.015 |
| ST8SIA6 (UniProt P61647) | inactive: 0.217 |
| SSBP3 (UniProt Q9BWW4) | inactive: -0.066 |
| SQOR (UniProt Q9Y6N5) | inactive: 0.053 |
| STARD10 (UniProt Q9Y365) | inactive: -0.052 |
| SPATA33 isoform 2 (UniProt Q96N06) | inactive: -0.058 |
| SPATS2L isoform 3 (UniProt Q9NUQ6) | inactive: 0.033 |

compound: C[C@@H](Oc1cc(-c2cnn(C3CCNCC3)c2)cnc1N)c1c(Cl)ccc(F)c1Cl [crizotinib]; assay: as above
Method in brief: as §1

| Target | log2 fold change |
| --- | --- |
| SSBP4 (UniProt Q9BWG4) | inactive: -0.034 |
| SPIRE1 (UniProt Q08AE8) | inactive: -0.105 |
| STAB1 (UniProt Q9NY15) | inactive: -0.016 |
| STK16 (UniProt O75716) | inactive: -0.017 |
| SREBF1 isoform 4 (UniProt P36956) | inactive: 0.106 |
| STK17B (UniProt O94768) | inactive: -0.227 |
| SPIN4 (UniProt Q56A73) | inactive: 0.108 |
| SRCAP (UniProt Q6ZRS2) | inactive: -0.276 |
| SRD5A3 (UniProt Q9H8P0) | inactive: -0.203 |
| ST8SIA6 (UniProt P61647) | inactive: 0.105 |
| SRGAP1 (UniProt Q7Z6B7) | inactive: -0.081 |

compound: C[C@@H]1COCCN1C2=NC(=NC(=C2)C3(CC3)S(=O)(=O)C)C4=C5C=CNC5=CC=C4; assay: as above
Method in brief: as §1

| Target | log2 fold change |
| --- | --- |
| SPP2 (UniProt Q13103) | inactive: -0.023 |
| ST3GAL4 isoform 4 (UniProt Q11206) | inactive: 0.005 |
| SPRR2B (UniProt P35325) | inactive: 0.059 |
| SRBD1 (UniProt Q8N5C6) | inactive: 0.233 |
| SPIRE1 (UniProt Q08AE8) | inactive: -0.324 |
| ST3GAL1 (UniProt Q11201) | inactive: 0.16 |
| SSX1 (UniProt Q16384) | inactive: -0.13 |
| STAB1 (UniProt Q9NY15) | inactive: 0.114 |
| SPEN (UniProt Q96T58) | inactive: 0.01 |
| STK16 (UniProt O75716) | inactive: 0.108 |
| SREK1IP1 (UniProt Q8N9Q2) | inactive: -0.194 |
| SREBF1 isoform 4 (UniProt P36956) | inactive: 0.084 |
| SPRED1 (UniProt Q7Z699) | inactive: -0.224 |
| STIM2 isoform 2 (UniProt Q9P246) | inactive: 0.01 |
| SPTY2D1 (UniProt Q68D10) | inactive: -0.269 |
| SSBP3 (UniProt Q9BWW4) | inactive: 0.188 |
| SQOR (UniProt Q9Y6N5) | inactive: -0.184 |
| SSBP2 (UniProt P81877) | inactive: 0.136 |
| STARD10 (UniProt Q9Y365) | inactive: -0.131 |
| SPATS2L isoform 3 (UniProt Q9NUQ6) | inactive: -0.741 |
| SRGAP1 (UniProt Q7Z6B7) | inactive: -0.129 |

compound: C[C@H](C1=CC=C(C=C1)C(=O)NC2=C3C=CNC3=NC=C2)N; assay: as above
Method in brief: as §1

| Target | log2 fold change |
| --- | --- |
| SPP2 (UniProt Q13103) | inactive: -0.004 |
| ST3GAL4 isoform 4 (UniProt Q11206) | inactive: -0.053 |
| SPIRE1 (UniProt Q08AE8) | inactive: 0.087 |
| ST3GAL1 (UniProt Q11201) | inactive: 0.131 |
| SSX1 (UniProt Q16384) | inactive: 0.122 |
| STAB1 (UniProt Q9NY15) | inactive: -0.239 |
| SPEN (UniProt Q96T58) | inactive: 0.037 |
| SREK1IP1 (UniProt Q8N9Q2) | inactive: 0.232 |
| SPDL1 (UniProt Q96EA4) | inactive: 0.3 |
| SPRED1 (UniProt Q7Z699) | inactive: 0.005 |
| SPRED2 (UniProt Q7Z698) | inactive: 0.1 |
| SRCAP (UniProt Q6ZRS2) | inactive: -0.111 |
| SSBP3 (UniProt Q9BWW4) | inactive: -0.147 |
| SS18 (UniProt Q15532) | inactive: -0.191 |
| SSBP2 (UniProt P81877) | inactive: -0.289 |
| SPATA33 isoform 2 (UniProt Q96N06) | inactive: -0.037 |
| SPATS2L isoform 3 (UniProt Q9NUQ6) | inactive: 0.555 |
| SPATS2 (UniProt Q86XZ4) | inactive: 0.207 |

compound: C[C@H](Nc1ncnc2nc[nH]c12)c1cc2cccc(Cl)c2c(=O)n1-c1ccccc1 [duvelisib]; assay: as above
Method in brief: as §1

| Target | log2 fold change |
| --- | --- |
| SPP2 (UniProt Q13103) | inactive: -0.04 |
| ST3GAL1 (UniProt Q11201) | inactive: -0.011 |
| STAB1 (UniProt Q9NY15) | inactive: 0.045 |
| SPEN (UniProt Q96T58) | inactive: 0.007 |
| SREK1IP1 (UniProt Q8N9Q2) | inactive: 0.027 |
| SPDL1 (UniProt Q96EA4) | inactive: -0.075 |
| SSBP3 (UniProt Q9BWW4) | inactive: 0.071 |
| SS18 (UniProt Q15532) | inactive: 0.232 |
| SQOR (UniProt Q9Y6N5) | inactive: 0.101 |
| STARD10 (UniProt Q9Y365) | inactive: 0.088 |
| SPATA33 isoform 2 (UniProt Q96N06) | inactive: 0.078 |
| SPATS2L isoform 3 (UniProt Q9NUQ6) | inactive: -0.254 |
| SPATS2 (UniProt Q86XZ4) | inactive: -0.062 |
